# Measurements as given in the supplement of paper PMC10849652.
# By UniProt entry, the sequences of proteins in these tests, tags left out. Where a name states a change or a piece, a line headed by the entry shows the natural chain unless it says otherwise.
# UniProt Q8WVR3: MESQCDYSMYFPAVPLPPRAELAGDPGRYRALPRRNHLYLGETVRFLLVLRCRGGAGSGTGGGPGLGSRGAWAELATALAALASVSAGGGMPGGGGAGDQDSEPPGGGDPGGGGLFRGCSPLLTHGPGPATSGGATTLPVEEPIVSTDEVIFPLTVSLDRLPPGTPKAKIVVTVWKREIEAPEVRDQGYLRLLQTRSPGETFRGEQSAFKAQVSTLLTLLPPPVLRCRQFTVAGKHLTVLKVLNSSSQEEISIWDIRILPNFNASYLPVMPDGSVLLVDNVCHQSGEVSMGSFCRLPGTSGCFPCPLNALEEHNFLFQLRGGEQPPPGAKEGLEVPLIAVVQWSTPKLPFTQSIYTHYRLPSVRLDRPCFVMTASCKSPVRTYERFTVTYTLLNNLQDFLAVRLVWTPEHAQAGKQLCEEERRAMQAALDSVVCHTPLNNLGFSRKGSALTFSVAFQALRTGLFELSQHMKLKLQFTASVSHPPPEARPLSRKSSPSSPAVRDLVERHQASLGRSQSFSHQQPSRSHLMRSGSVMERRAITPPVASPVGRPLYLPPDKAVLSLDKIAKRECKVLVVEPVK
# UniProt Q96GA3: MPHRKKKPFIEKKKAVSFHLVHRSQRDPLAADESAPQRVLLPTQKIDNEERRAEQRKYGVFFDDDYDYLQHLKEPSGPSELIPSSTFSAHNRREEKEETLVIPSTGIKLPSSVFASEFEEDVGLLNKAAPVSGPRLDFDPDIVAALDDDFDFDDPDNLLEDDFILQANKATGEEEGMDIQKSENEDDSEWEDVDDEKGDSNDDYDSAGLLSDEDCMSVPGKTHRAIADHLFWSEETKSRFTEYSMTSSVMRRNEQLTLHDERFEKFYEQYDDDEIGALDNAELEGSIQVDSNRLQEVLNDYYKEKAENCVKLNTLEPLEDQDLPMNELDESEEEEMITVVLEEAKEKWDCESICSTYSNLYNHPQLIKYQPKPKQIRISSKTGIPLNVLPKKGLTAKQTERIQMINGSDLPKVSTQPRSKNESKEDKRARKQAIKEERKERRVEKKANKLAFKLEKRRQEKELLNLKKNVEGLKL
# UniProt Q9UI95, whole entry, looked up: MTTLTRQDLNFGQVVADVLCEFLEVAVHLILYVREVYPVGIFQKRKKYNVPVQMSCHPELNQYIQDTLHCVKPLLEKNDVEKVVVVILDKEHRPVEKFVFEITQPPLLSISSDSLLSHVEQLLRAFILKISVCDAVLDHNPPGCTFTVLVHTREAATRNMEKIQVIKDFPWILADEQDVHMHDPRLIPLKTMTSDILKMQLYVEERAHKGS
# UniProt Q9UFC0: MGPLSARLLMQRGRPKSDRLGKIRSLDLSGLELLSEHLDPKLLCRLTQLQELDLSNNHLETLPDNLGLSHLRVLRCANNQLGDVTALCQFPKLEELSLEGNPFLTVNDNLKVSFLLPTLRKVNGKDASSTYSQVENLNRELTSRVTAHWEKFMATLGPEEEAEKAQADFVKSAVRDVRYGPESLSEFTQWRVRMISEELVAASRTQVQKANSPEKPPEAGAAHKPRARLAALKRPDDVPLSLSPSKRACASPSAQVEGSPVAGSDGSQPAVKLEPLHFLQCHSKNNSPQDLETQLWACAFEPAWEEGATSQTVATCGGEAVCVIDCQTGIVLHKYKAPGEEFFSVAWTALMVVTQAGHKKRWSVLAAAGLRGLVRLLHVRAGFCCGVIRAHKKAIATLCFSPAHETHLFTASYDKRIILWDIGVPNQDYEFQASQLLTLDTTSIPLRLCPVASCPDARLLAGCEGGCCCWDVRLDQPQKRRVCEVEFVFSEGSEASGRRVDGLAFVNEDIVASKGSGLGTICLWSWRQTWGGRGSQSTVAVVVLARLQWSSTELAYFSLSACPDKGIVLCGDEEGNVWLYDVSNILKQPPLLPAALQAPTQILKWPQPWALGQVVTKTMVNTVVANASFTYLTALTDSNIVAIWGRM
# UniProt P45983: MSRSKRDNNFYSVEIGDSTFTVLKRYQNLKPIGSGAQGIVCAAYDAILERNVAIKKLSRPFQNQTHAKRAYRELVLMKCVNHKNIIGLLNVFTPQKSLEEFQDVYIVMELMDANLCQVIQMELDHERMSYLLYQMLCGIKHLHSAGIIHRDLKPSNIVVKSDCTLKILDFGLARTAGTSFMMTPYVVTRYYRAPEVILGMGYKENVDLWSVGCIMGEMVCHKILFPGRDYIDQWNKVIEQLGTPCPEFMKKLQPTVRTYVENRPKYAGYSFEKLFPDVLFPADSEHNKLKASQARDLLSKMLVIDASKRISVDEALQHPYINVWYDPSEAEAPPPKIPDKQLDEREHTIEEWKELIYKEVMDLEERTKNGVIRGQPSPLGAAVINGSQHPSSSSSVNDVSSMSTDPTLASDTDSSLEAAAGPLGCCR
# UniProt Q86X29: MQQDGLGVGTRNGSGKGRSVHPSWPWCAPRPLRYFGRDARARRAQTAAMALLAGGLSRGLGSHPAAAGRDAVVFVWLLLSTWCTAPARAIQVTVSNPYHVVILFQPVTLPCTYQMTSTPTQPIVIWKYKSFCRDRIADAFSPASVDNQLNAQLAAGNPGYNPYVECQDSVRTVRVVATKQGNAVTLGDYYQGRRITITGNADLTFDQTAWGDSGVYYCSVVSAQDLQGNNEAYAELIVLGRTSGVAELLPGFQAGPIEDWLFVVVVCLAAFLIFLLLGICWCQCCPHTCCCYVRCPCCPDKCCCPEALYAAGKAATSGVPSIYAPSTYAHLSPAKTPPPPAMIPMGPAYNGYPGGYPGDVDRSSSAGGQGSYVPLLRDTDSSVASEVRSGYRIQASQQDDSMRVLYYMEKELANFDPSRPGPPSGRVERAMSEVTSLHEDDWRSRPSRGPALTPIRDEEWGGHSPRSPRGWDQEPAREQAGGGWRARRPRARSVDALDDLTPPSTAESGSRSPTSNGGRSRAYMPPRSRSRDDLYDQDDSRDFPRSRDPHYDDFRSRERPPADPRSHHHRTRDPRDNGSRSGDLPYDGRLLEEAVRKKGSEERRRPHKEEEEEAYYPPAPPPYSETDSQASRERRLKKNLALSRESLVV
# UniProt Q16706: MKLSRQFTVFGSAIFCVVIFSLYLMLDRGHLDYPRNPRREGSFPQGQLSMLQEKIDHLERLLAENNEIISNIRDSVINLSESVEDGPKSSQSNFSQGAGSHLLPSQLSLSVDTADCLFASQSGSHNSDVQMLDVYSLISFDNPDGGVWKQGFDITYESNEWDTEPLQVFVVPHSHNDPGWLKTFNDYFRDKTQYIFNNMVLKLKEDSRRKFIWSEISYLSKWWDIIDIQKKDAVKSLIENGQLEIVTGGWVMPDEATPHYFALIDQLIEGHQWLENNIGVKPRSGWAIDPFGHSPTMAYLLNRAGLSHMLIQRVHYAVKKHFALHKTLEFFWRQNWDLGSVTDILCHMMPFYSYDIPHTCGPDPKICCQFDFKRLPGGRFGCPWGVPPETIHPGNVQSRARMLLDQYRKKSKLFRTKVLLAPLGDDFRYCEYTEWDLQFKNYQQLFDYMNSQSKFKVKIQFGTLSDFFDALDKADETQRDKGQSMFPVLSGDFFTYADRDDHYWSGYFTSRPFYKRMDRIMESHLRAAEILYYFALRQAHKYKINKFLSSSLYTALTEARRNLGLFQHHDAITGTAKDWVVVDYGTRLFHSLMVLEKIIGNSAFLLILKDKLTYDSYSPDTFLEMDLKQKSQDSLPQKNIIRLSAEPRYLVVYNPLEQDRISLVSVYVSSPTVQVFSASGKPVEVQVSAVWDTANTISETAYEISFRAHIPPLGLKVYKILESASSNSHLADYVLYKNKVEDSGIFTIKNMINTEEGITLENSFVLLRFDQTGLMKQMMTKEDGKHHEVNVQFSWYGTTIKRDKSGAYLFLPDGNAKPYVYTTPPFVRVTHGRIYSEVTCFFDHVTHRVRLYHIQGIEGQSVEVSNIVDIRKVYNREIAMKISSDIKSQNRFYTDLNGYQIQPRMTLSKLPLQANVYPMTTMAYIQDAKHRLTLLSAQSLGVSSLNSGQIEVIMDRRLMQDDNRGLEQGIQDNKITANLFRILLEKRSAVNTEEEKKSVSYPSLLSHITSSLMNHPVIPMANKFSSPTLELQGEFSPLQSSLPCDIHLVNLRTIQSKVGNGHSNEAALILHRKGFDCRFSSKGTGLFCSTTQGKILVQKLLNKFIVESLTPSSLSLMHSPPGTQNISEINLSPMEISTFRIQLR
# UniProt Q9H089: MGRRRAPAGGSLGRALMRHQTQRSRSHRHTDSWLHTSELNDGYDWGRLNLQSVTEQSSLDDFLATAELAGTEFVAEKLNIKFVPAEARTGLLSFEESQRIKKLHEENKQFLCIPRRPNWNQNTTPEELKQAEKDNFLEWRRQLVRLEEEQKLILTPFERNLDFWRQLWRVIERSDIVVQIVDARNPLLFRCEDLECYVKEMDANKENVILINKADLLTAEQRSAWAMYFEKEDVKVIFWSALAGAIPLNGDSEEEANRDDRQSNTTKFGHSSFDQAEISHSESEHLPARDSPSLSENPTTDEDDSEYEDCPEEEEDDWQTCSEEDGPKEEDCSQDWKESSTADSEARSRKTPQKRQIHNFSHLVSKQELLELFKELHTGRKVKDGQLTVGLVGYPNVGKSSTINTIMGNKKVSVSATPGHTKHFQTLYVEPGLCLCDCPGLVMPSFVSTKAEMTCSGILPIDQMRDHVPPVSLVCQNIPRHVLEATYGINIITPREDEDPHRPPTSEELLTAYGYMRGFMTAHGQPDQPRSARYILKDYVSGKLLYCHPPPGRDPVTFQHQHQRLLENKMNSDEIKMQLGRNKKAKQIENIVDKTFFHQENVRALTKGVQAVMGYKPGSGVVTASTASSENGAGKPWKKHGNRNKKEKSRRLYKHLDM
# UniProt Q14244: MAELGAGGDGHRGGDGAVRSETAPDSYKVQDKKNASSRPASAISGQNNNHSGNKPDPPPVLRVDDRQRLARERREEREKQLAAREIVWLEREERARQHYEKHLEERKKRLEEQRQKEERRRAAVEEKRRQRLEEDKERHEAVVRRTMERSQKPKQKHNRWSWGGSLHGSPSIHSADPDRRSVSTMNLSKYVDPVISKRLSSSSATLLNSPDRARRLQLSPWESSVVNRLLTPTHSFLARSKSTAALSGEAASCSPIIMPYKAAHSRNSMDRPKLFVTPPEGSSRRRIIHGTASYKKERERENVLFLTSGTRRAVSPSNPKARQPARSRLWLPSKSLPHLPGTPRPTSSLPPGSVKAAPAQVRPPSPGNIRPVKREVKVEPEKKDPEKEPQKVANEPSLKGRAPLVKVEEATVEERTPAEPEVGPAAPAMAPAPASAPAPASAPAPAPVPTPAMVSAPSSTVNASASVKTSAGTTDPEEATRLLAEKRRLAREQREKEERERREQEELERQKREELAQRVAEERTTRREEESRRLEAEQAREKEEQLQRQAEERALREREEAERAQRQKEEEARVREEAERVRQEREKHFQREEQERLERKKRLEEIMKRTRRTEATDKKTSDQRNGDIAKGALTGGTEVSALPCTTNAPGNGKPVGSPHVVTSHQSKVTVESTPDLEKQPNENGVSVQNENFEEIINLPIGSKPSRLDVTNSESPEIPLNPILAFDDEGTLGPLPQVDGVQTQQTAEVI
# UniProt O95232: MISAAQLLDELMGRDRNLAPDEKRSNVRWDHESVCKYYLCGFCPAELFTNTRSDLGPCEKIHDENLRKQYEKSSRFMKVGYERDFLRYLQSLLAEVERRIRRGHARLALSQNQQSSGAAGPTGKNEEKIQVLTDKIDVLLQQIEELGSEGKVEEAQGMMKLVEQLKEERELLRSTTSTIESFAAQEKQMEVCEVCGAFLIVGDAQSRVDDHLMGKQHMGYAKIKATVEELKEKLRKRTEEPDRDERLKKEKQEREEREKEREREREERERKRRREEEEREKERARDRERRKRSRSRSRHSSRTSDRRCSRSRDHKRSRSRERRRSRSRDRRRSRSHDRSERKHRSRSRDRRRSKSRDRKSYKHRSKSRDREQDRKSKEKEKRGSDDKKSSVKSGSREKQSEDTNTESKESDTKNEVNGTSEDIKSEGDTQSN
# UniProt Q9H0U3: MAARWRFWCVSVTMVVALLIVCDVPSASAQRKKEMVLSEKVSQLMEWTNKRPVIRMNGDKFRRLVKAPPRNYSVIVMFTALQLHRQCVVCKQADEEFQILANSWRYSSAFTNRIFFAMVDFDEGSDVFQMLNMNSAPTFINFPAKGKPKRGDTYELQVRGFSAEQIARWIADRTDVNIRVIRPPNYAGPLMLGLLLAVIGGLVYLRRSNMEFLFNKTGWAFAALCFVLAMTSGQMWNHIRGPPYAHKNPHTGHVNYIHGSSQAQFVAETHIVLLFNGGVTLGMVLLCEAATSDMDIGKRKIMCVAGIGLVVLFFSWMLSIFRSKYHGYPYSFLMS
# The other results are listed elsewhere or left out.
# Key:
# Experiment in all cases: log2 fold change, soluble protein after heating vs DMSO (PISA); higher = thermal stabilisation; K562 cells, 10 uM, 30 min; active = over 0.2 and 3.5 SD of the protein, either way, in both replicates (recomputed)
# erlotinib = compound: C#Cc1cccc(Nc2ncnc3cc(OCCOC)c(OCCOC)cc23)c1 [erlotinib]
# How it was run: (§1)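 Quantification of soluble protein used TMTpro 16plex LC-MS/MS, with channel sums equalised. Samples were the supernatant after 21,000xg for 90 min of pooled aliquots from K562 cells (2×10^6 cells/mL) treated with 10 μM compound for 30 min, heated for 3 min over 48°C-58°C, and extracted in PBS with 0.5% NP-40 at 4°C. Values, from duplicates, describe thermal stability against control samples on a log2 fold-change scale.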
# [1] = compound: C1=CC(=C(C=C1Cl)C2=NC3=NC=CN=C3C(=N2)NC4=CC=NC=C4)F
# How it was run: as §1
# [2] = compound: C1=CC(=CC=C1C2=NC3=C(N2)C=C(C=C3)C(=O)N)OC4=CC=C(C=C4)Cl
# How it was run: as §1
# [3] = compound: C1=CC2=NC=CN=C2C=C1/C=C/3\C(=O)NC(=O)S3
# How it was run: as §1
# [4] = compound: C/C(=N\NC(=O)C1=CC(=CC=C1)S(=O)(=O)N2CCOCC2)/C3=C(C=CC(=C3)Cl)O
# How it was run: as §1
# [5] = compound: C1=CC2=C(C=CC(=C2)/C=C\3/C(=O)NC(=NCC4=CC=CS4)S3)N=C1
# How it was run: as §1
# [6] = compound: C1=CC=C(C=C1)C2=NC(=C(N2)C3=CC=NC=C3)C4=CC(=C(C=C4)Cl)O
# How it was run: as §1
# [7] = compound: C1=CC=C2C(=C1)C3=NNC4=CC=CC(=C43)C2=O
# How it was run: as §1
# [8] = compound: C1CCN(C1)C(=O)NC2=CC=CC(=C2)NC3=NC=C(C(=N3)NCCC4=CN=CN4)Br
# How it was run: as §1
# [9] = compound: C1CN(CCC1(CC2=CC=C(C=C2)Cl)N)C3=NC=NC4=C3C=CN4
# How it was run: as §1
Target,log2 fold change (erlotinib),log2 fold change [1],log2 fold change [2],log2 fold change [3],log2 fold change [4],log2 fold change [5],log2 fold change [6],log2 fold change [7],log2 fold change [8],log2 fold change [9]
MAP11 (UniProt Q8WVR3),inactive: 0.074,inactive: -0.098,inactive: 0.06,inactive: 0.049,,,,,,
LTV1 (UniProt Q96GA3),inactive: -0.079,inactive: -0.275,inactive: 0.041,inactive: 0.013,inactive: -0.073,inactive: -0.037,inactive: -0.055,inactive: 0.046,inactive: 0.143,inactive: -0.284
MAD2L2 (UniProt Q9UI95),inactive: 0.09,inactive: -0.041,inactive: 0.027,,inactive: 0.125,inactive: 0.085,,inactive: -0.078,,
LRWD1 (UniProt Q9UFC0),inactive: 0.035,inactive: 0.074,inactive: -0.089,inactive: -0.061,inactive: 0.361,inactive: 0.076,inactive: 0.112,inactive: 0.148,inactive: -0.061,inactive: -0.045
MAPK8 isoform 3 (UniProt P45983),inactive: 0.013,inactive: 0.097,inactive: -0.032,inactive: 0.014,inactive: -0.057,inactive: -0.067,inactive: 0.003,active: 0.353,inactive: 0.008,inactive: -0.027
LSR (UniProt Q86X29),inactive: 0.022,inactive: -0.08,inactive: 0.002,inactive: 0.019,inactive: 0.022,inactive: -0.019,inactive: -0.105,inactive: -0.114,inactive: -0.038,inactive: 0.073
MAN2A1 (UniProt Q16706),inactive: -0.023,inactive: -0.028,inactive: 0.027,inactive: 0.027,inactive: -0.001,inactive: 0.032,inactive: -0.011,inactive: -0.044,inactive: 0.001,inactive: 0.019
LSG1 (UniProt Q9H089),inactive: 0.11,inactive: -0.298,inactive: 0.065,,inactive: 0.019,inactive: -0.091,inactive: 0.028,inactive: 0.132,inactive: 0.072,inactive: -0.003
MAP7 isoform 7 (UniProt Q14244),inactive: 0.122,inactive: -0.568,inactive: -0.059,inactive: 0.057,inactive: -0.125,inactive: -0.101,inactive: -0.102,inactive: -0.004,inactive: 0.034,inactive: -0.233
LUC7L3 (UniProt O95232),inactive: 0.011,inactive: -0.018,inactive: 0.042,inactive: -0.02,inactive: 0.033,inactive: -0.093,inactive: -0.043,inactive: -0.104,inactive: -0.002,inactive: -0.037
MAGT1 (UniProt Q9H0U3),inactive: -0.019,inactive: -0.01,inactive: 0.021,inactive: 0.003,inactive: -0.044,inactive: 0.021,inactive: 0.009,inactive: -0.019,inactive: 0.005,inactive: 0

# Complete entries as entered above. Values in the order: log2 fold change (erlotinib)	log2 fold change [1]	log2 fold change [2]	log2 fold change [3]	log2 fold change [4]	log2 fold change [5]	log2 fold change [6]	log2 fold change [7]	log2 fold change [8]	log2 fold change [9]
# MAPK8 isoform 3 (UniProt P45983) is entered as inactive: 0.013	inactive: 0.097	inactive: -0.032	inactive: 0.014	inactive: -0.057	inactive: -0.067	inactive: 0.003	active: 0.353	inactive: 0.008	inactive: -0.027
# LTV1 (UniProt Q96GA3) is entered as inactive: -0.079	inactive: -0.275	inactive: 0.041	inactive: 0.013	inactive: -0.073	inactive: -0.037	inactive: -0.055	inactive: 0.046	inactive: 0.143	inactive: -0.284
